Test results: PubChem BioAssay AID330 (DTP/NCI, 2004)
Inconclusive results and toxic doses are left out. How the source made its calls: active means survival T/C of 150% or more; inactive means T/C below 125% in these data.

Test system: P388 leukemia ip, CD2F1 mice, survival T/C
Test: NCI In Vivo Anticancer Drug Screen. Data for tumor model P388 Leukemia (intraperitoneal) in CD2F1 (CDF1) mice
Settings: endpoint: median survival time, schedule: Q01DX005 (ip), vehicle: Klucel (hydroxypropylcellulose) (HPC), higher = longer survival
Summary of the method: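 Mice carrying the transplanted tumor received test compound or vehicle. Survival was recorded in each group, and the value is the treated-group measurement divided by that of the vehicle-treated control group.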

Measured: T/C

CCCC(NC(=O)OC(C)(C)C)C(=O)O (stereo not drawn)
inactive: dose: 50.0 mg/kg/injection 104 % of control | dose: 100.0 mg/kg/injection 93 % of control | dose: 200.0 mg/kg/injection 95 % of control
